Reference: patent US8436007B2, “Inhibitors of protein kinases” (Ingenium Pharmaceuticals GmbH, priority 2007, dated 2013)
Some results were stated once for a whole list of compounds, not compound by compound.

Chains of the proteins cited; added tags and fusions are not shown. Lines headed by an entry give the natural chain unless they say otherwise; changes in a name come on top.
UniProt Q00535, whole entry: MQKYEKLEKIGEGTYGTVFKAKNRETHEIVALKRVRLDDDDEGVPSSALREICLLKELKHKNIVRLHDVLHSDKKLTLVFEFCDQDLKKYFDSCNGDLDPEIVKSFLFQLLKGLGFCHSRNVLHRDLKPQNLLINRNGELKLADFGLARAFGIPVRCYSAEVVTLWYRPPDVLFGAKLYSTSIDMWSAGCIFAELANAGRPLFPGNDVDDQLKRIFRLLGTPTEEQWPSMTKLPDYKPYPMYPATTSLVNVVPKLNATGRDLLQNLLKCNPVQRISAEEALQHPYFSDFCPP
UniProt Q00534, whole entry: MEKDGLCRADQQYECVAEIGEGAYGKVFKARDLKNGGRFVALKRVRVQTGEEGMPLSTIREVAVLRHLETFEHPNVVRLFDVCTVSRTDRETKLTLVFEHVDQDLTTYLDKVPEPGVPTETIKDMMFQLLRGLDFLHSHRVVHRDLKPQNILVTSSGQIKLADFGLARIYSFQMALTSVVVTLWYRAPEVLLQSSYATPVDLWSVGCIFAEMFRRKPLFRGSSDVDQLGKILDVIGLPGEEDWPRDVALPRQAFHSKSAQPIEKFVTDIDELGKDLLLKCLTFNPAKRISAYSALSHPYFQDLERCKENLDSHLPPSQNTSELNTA
UniProt P11802: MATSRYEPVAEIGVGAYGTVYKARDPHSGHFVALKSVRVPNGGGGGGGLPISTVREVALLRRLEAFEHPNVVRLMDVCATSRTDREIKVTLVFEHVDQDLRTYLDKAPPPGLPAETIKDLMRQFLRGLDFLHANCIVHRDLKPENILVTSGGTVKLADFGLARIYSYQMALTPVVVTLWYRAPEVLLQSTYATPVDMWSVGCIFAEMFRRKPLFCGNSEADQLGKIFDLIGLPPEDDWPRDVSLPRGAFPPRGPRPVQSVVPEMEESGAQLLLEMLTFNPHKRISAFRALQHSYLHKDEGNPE
UniProt P50750, whole entry: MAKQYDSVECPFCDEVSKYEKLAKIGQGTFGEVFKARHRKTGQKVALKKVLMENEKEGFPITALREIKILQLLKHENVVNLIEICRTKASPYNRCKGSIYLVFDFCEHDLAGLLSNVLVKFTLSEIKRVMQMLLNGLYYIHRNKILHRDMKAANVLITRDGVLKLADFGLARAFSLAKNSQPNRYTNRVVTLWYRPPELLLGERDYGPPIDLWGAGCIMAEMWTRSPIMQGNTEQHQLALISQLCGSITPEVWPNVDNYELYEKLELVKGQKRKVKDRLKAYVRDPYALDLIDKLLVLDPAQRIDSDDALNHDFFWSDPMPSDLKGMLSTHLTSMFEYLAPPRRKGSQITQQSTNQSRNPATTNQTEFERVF

Legend:
Type in all cases: biochemical
Settings in all cases: 1 μM ATP, 30° C., 80 minutes; bounds printed each with its own unit (nM, μM)
[1] = target: T1, CDK5/p35NCK (Homo sapiens, UniProt Q00535); experiment: In vitro kinase inhibition assay (33P FlashPlate) CDK5/p35NCK
T1 construct: host or cells: Sf9 insect cells (baculovirus)

[2] = target: T2, CDK6/CycD1 (Homo sapiens, UniProt Q00534); experiment: In vitro kinase inhibition assay (33P FlashPlate) CDK6/CycD1
T2 construct: host or cells: Sf9 insect cells (baculovirus)

[3] = target: T3, CDK2/CycA (Homo sapiens, UniProt P24941); experiment: In vitro kinase inhibition assay (33P FlashPlate) CDK2/CycA
T3 construct: host or cells: Sf9 insect cells (baculovirus)

[4] = target: T4, CDK4/CycD1 (Homo sapiens, UniProt P11802); experiment: In vitro kinase inhibition assay (33P FlashPlate) CDK4/CycD1
T4 construct: host or cells: Sf9 insect cells (baculovirus)

[5] = target: T5, CDK9/CycT (Homo sapiens, UniProt P50750); experiment: In vitro kinase inhibition assay (33P FlashPlate) CDK9/CycT
T5 construct: host or cells: Sf9 insect cells (baculovirus)

Measured: IC50

COc1ccccc1-c1nc(Nc2cccc(CS(N)(=O)=O)c2)ncc1C [Compound 13, {3-[4-(2-Methoxy-phenyl)-5-methyl-pyrimidin-2-ylamino]-phenyl}-methanesulfonamide]
1 nM and 10000 nM: all assays above

COc1ccccc1-c1ccnc(Nc2cccc(CS(=O)(=O)N(C)CCO)c2)n1 [Compound 8, N-(2-Hydroxy-ethyl)-C-{3-[4-(2-methoxy-phenyl)-pyrimidin-2-ylamino]-phenyl}-N-methyl-methanesulfonamide]
1 nM and 10000 nM: all assays above

COc1cc(F)ccc1-c1ccnc(Nc2cccc(CS(N)(=O)=O)c2)n1 [Compound 5, {3-[4-(4-Fluoro-2-methoxy-phenyl)-pyrimidin-2-ylamino]-phenyl}-methanesulfonamide]
1 nM and 10000 nM: all assays above

COc1ccccc1-c1cc(C)nc(Nc2cccc(CS(N)(=O)=O)c2)n1 [Compound 10, {3-[4-(2-Methoxy-phenyl)-6-methyl-pyrimidin-2-ylamino]-phenyl}-methanesulfonamide]
1 nM and 10000 nM: all assays above

COc1ccccc1-c1ccnc(Nc2cccc(CS(=O)(=O)NC3CC3)c2)n1 [Compound 6, N-Cyclopropyl-C-{3-[4-(2-methoxy-phenyl)-pyrimidin-2-ylamino]-phenyl}-methanesulfonamide]
1 nM and 10000 nM: all assays above

COc1ccccc1-c1ccnc(Nc2cccc(CS(=O)(=O)NCCO)c2)n1 [Compound 7, N-(2-Hydroxy-ethyl)-C-{3-[4-(2-methoxy-phenyl)-pyrimidin-2-ylamino]-phenyl}-methanesulfonamide]
1 nM and 10000 nM: all assays above

COc1ccccc1-c1ccnc(Nc2cccc(CS(=O)(=O)N(C)C)c2)n1 [Compound 3, C-{3-[4-(2-Methoxy-phenyl)-pyrimidin-2-ylamino]-phenyl}-N,N-dimethyl-methanesulfonamide]
1 nM and 10000 nM: all assays above

COc1ccccc1-c1cc(C)nc(Nc2cccc(CS(=O)(=O)CCO)c2)n1 [Compound 12, 2-{3-[4-(2-Methoxy-phenyl)-6-methyl-pyrimidin-2-ylamino]-phenylmethanesulfonyl}-ethanol]
1 nM and 10000 nM: all assays above

COc1ccccc1-c1nc(Nc2cccc(CS(=O)(=O)CCO)c2)ncc1C [Compound 15, 2-{3-[4-(2-Methoxy-phenyl)-5-methyl-pyrimidin-2-ylamino]-phenylmethanesulfonyl}-ethanol]
1 nM and 10000 nM: all assays above

COc1ccccc1-c1cc(C)nc(Nc2cccc(CS(=O)(=O)N(C)CCO)c2)n1 [Compound 11, N-(2-Hydroxy-ethyl)-C-{3-[4-(2-methoxy-phenyl)-6-methyl-pyrimidin-2-ylamino]-phenyl}-N-methyl-methanesulfonamide]
1 nM and 10000 nM: all assays above

COc1ccccc1-c1ccnc(Nc2cccc(CS(=O)(=O)CCO)c2)n1 [Compound 9, 2-{3-[4-(2-Methoxy-phenyl)-pyrimidin-2-ylamino]-phenylmethanesulfonyl}-ethanol]
1 nM and 10000 nM: all assays above

COc1ccccc1-c1nc(Nc2cccc(CS(=O)(=O)N(C)CCO)c2)ncc1C [Compound 14, N-(2-Hydroxy-ethyl)-C-{3-[4-(2-methoxy-phenyl)-5-methyl-pyrimidin-2-ylamino]-phenyl}-N-methyl-methanesulfonamide]
1 nM and 10000 nM: all assays above

CC(C)Oc1ccccc1-c1ccnc(Nc2cccc(CS(N)(=O)=O)c2)n1 [Compound 2, {3-[4-(2-Isopropoxy-phenyl)-pyrimidin-2-ylamino]-phenyl}-methanesulfonamide]
1 nM and 10000 nM: all assays above

CNS(=O)(=O)Cc1cccc(Nc2nccc(-c3ccccc3OC)n2)c1 [Compound 4, C-{3-[4-(2-Methoxy-phenyl)-pyrimidin-2-ylamino]-phenyl}-N-methyl-methanesulfonamide]
1 nM and 10000 nM: all assays above

COc1ccccc1-c1ccnc(Nc2cccc(CS(N)(=O)=O)c2)n1 [Compound 1, {3-[4-(2-Methoxy-phenyl)-pyrimidin-2-ylamino]-phenyl}-methanesulfonamide]
1 nM and 10000 nM: all assays above
